In publication PMC5534433:
No constants are given. Whether binding was seen depends on the method and setting. Binding seen in cells or lysates may run through a third protein. Binding can be weak; no strength is given. Sequences can lack the tags named with a protein.

Amino acid sequences for entries named in this document (tags omitted). A change or cut given only in a name is not applied to a line headed by its entry.
UniProt P53137: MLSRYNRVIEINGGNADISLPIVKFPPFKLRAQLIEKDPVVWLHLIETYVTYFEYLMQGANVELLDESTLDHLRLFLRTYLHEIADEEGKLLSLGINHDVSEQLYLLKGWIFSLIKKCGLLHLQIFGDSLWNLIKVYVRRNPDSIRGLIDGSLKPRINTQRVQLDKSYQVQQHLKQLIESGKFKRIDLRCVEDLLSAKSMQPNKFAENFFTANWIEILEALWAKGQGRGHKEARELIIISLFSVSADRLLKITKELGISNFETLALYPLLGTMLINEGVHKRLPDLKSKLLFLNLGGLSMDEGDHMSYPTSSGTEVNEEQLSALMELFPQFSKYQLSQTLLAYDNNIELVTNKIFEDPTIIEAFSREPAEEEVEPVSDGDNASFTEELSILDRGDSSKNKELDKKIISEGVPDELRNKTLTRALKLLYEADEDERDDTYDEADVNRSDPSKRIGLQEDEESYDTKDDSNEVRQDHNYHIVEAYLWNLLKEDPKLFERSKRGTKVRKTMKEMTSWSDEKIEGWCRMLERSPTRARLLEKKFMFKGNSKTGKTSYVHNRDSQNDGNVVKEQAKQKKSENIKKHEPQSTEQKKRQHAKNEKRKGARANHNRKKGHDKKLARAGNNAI

Target: T1, C-terminal FLAG-TEV-ProtA-tagged Rqt1 (Hel2) (S. cerevisiae) (UniProt Q05580)
T1 sequence: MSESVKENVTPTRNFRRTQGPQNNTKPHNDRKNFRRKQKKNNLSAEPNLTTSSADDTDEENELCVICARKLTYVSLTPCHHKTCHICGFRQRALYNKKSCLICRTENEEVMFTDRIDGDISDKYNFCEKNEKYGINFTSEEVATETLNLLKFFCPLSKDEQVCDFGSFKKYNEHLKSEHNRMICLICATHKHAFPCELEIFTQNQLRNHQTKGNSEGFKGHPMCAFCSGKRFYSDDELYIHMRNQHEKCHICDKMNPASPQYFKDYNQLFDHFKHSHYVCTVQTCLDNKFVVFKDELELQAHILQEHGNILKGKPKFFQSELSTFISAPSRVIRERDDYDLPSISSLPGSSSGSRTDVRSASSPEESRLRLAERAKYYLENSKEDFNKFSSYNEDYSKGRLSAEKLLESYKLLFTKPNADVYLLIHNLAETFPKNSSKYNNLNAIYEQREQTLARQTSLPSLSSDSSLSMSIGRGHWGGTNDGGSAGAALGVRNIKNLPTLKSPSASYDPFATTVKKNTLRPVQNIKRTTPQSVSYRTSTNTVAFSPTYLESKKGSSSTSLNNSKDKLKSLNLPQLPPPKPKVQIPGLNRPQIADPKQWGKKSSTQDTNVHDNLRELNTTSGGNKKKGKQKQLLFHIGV
Assay: co-IP; Rqt1-ribosome complex purified from Rqt3-Ub-m mutant cells (Fig. 3d); how the partners were detected is not told

In the case of “Rqt3-Ub-m (Rqt3 with mutations in the ubiquitin-binding CUE domain, in yeast cells) (from UniProt P53137)”, the binding is reported as “binds”.
